Assay results as given in the RNAGym collection of RNA variant scans (doi:10.1126/science.aae0568).
Variants at the background level are over-represented here.

B1: tRNA (parent)
chain: GUUCCGUUGGCGUAAUGGUAACGCGUCUCCCUCCUAAGGAGAAGACUGCGGGUUCGAGUCCCGUACGGAACG

Variants of: B1
Assay: yeast fitness relative to wild type (ratio to wild type); higher = fitter; tRNA-Arg(CCU), competitive growth, 37 C, YPD
Procedure, shortened: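 For this measurement, the tRNA-Arg(CCU) gene was varied by chemical synthesis at a 3% per-site mutation rate across 69 sites, and each variant was placed at the native genomic locus in Saccharomyces cerevisiae. The pooled strains went through a 24-hour competition in YPD at 37°C in six parallel replicates, with amplicons from start and end populations read by 100-nucleotide paired-end sequencing. Darwinian fitness relative to wild type followed from the change in each genotype's frequency. Genotypes needed ≥ 100 starting reads, and estimates < 0.5 were set to 0.5.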

| Variant | yeast fitness |
| --- | --- |
| GUUGUGUUGGCGUAAUGGUAACGCGUCUCCCUCCUAAGGAGAGGACUGCGGGUUCGAGUCCCGUACGGAACG [C4G C5U A43G] | ≤ 0.5 |
| GUUGCGUUGGCGUAAUGAUAGCGCAUCUCCCUCCUAAGGAGAAGACUGCGGGUUCGAGUCCCGUACGGAACG [C4G G18A A21G G25A] | ≤ 0.5 |
| GUACCGUUGGCGUAAUGGUAACGCAUCUCCCUCCUAAGGAGAUGACUGCGGGUUCAAGUCCCGUACGCAACG [U3A G25A A43U G56A G68C] | ≤ 0.5 |
| GUUCCGUUGGCGUAAUGGUAACGCGUCUCCCUCCUAAGGAGACGACUGCGGGUUCGAGUCCCGUACAGAACG [A43C G67A] | 0.685 |
| GUUCCGUUGGCGUGAUGGUAACGCGUCUCCCUCGUAAGGAGACGACUGCGGGUUCGAUUCCCGUUCGGAACG [A14G C34G A43C G58U A65U] | ≤ 0.5 |
| GUUCCGUUCGCGUCAUGGUAACGCGUCUCCCUCCUAAGGAGAAGACUGCGGGUUCGAGUCCCGUACGGAACG [G9C A14C] | ≤ 0.5 |
| GUUCCGGUGGCGUAAUGGUAACGCGUCUCCCUCCUAAGGAAAAGACUGAGGGUUCGAGUCCCGUAAGGAACG [U7G G41A C49A C66A] | ≤ 0.5 |
| GUUCCGUUAGCGUAAUGGUAACGCUUCUACCUCCUAAGGAGAAGACUGCGGGUUCCAGUCCCGUACGGAACG [G9A G25U C29A G56C] | ≤ 0.5 |
| GUUCCGUUGGCGUACUGGUAACGCGUCACCCUCCUAAGGAGAAGACUGCGGGUUCGAGUCCCGUACGGUACG [A15C U28A A69U] | ≤ 0.5 |
| GUUCCGUUGGCGUUAUGGUAACGCGUGUCCCUCCUAAGGAGAAGACUGCGGGUUCGGGUCCAGUACGGAACG [A14U C27G A57G C62A] | ≤ 0.5 |
| GUUCCGUGGGCGUAAUGGUAACGCGUCUCCCUCAUAAGAGGAAGACUGCGGGUUCGAGUCCCGUACGGAACG [U8G C34A G39A A40G] | ≤ 0.5 |
| GUUCCGUUGCAGUAAUGAUAACGCGUCUCCCACCUAAGGAGAAGAGUGCGGGUUCGAGUUCCGUACGGAACG [G10C C11A G18A U32A C46G C60U] | ≤ 0.5 |
| GUUCCAUUGGCGUAACGGUAACGCGUAUCCCUCCUAAGGAGAAGACUGCGGGUUCGAGUCCCGUACGGAACG [G6A U16C C27A] | ≤ 0.5 |
| GUUCCGUCAGCGGAAUGGUAACGCGUCUCCCUCCUAAGGAGAAGACUGCGGGUUCGAGUCCUGUACGGAACG [U8C G9A U13G C62U] | ≤ 0.5 |
| GUUCCGUUGGCGUAAUGGUAACGCCUCUCCCUCCUAAGGCGAAGACUGCGGGUUCGAGUCCCGUAAGGAACG [G25C A40C C66A] | ≤ 0.5 |
| GUUCCGUUGGCGUAAUGGUAACGCGUCUGUCUCCUAAGGAGAAGACUGCGGGUUCGAAUCCCGUACGGAACG [C29G C30U G58A] | 0.608 |
| GUUCCGUUGGCGUAAUGGUAAAGAGCCUCCCUCCUAAGGAGAAGACUGCGGGUUCGAGUGUCGUACGGAACG [C22A C24A U26C C60G C61U] | ≤ 0.5 |
| GUUCCGUCGGCGUACUGGUAACGCGUCUCCCCCCUAAGGAGAAGACUGCGGGUUCGAGUCCCGUACGGCACG [U8C A15C U32C A69C] | ≤ 0.5 |
| GUUCCGUUGGCGUAAUGGUGACGCGUCUCCCUCCUAAGGAGAGGACUGCGGCCUCGAGUCCCCUACGGAACG [A20G A43G G52C U53C G63C] | ≤ 0.5 |

| Variant | yeast fitness |
| --- | --- |
| GUUCCGUUGGCGUAAUGGUAACGCGUCGCCCUCCUAAGGAGAAGACUGCGGGUUCGAGUCCCGUACGGCCCG [U28G A69C A70C] | ≤ 0.5 |
| GUUCUGUUGGCGUCAUGGUAACGCGUCUCCCUCGUAUGGUGAAGACUGCGGGUUCCAGUCCCGUACGGAACG [C5U A14C C34G A37U A40U G56C] | ≤ 0.5 |
| GUUCCGUUGGCGUACUGGUAACGCGUCUCCCUAUUCAGGAGAAGACUGCGGGUUCGAGUCCCGCACGGAACG [A15C C33A C34U A36C U64C] | ≤ 0.5 |
| GUUCCGUUGGCGUAAUGGUAACGUGACGCCCUCCUAAGGAGAAGACUGCGAGUUCGAGUCCCGUACGGAACG [C24U U26A U28G G51A] | ≤ 0.5 |
| GUUCCGUUGGCGUAAUGGUAACGCGCCUACCUCCUAAGGAGAAGACUGCGCGUUCGAGUCCCGUACGGAACG [U26C C29A G51C] | ≤ 0.5 |
| GUUCUGUUGGCGCAAUGGUAACGGGCCUCCCUCCUAGGGAGAAGACUACGGGUUCGAGUCCCGUACGGAACG [C5U U13C C24G U26C A37G G48A] | ≤ 0.5 |
| GUACCGUUGGCGUAAUGGUAACGCGUCUCCCUCCUAAGGAGAAGACUGCGGGUUCGAGACCCGUACGGAGCG [U3A U59A A70G] | ≤ 0.5 |
| GUCCCGUGGGCGUAAUGGUAACGCGUCUCCCUCCUAAGGAGCAGACUGCGGGUUCGAGUCCCGUACGGAACG [U3C U8G A42C] | ≤ 0.5 |
| GUUUCGUUGGUGUAGUGGUAACGCGUCUCCCUCUUAAGGAGAAGACUGCGGGUCUGAGUCCCGUACUGCACG [C4U C11U A15G C34U U54C C55U G67U A69C] | ≤ 0.5 |
| GUUCAGUUGGCGUAAUGGUAACGCGUCUCCCUCCUAAGGAGCAGACAGAGUGUUCGAGUCCCGUACGGAACG [C5A A42C U47A C49A G51U] | ≤ 0.5 |
| GUCUCGUUGGCGUAGUGGUAACGCGACUCCCACCUAAGGAGAAGACUGCGGGUUCGAGUCCUGUACCGAACG [U3C C4U A15G U26A U32A C62U G67C] | 0.613 |
| GUUCCGUUGGCGUAAUGGUAUCGCGUCUCCCUACUAAGGAGAAGACUGCGGGUUCGAGUCCCGUACGGCACG [A21U C33A A69C] | ≤ 0.5 |
| GUUCCGUUGGAGUAAUGGUGACGCGUCUCCCUCCUAAGGAGAAGAUUGCCGGUUCGAGUCCCGUACGGAACG [C11A A20G C46U G50C] | ≤ 0.5 |
| GUUCCGUUGGCGUUAUGGCAACGCGUCUCCCUCCUAAGGAGAAGACUGCGGGUUCGAGUCCCGUACCGAACG [A14U U19C G67C] | ≤ 0.5 |
| GUUCCGUUGGUGUAAUGGUAACGCGUUUCCAUCCCAAGGAGAAGACUGCGGGUUCGAGUCCCGUACGGAACG [C11U C27U C31A U35C] | ≤ 0.5 |
| GUUCCGUUGGCGUAACGGUAACGCGUCUCCCUCCUAAGGAGAAGCCUGCGGGUUCAAGUCCUGUACGGAACG [U16C A45C G56A C62U] | ≤ 0.5 |
| GUUCCGUUGGCGUAACGGUAACGUGUCUCCCUUCUAAGGAGAAGACUGCGGGUUCGAGUCCCGUAUGGAACG [U16C C24U C33U C66U] | ≤ 0.5 |
| GUUCCGUUGGCGUAAUGGUAACACGUCUCCCUCCUAAGCUGAAGACUGCGGGUUCGAGUCCCGUACGCAACG [G23A G39C A40U G68C] | ≤ 0.5 |
| GUUACGUUGGCGUAAUGGUAACGCGUCUCCCUCCUAAGGAGAAGACUGCGGGAUCGAGUCCCGUACGGAACG [C4A U53A] | 0.769 |
